# PubChem BioAssay AID652272 – Drosophila RNAi Screening Center, 2013
# Assay: 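Genes whose knock-down decreases or increases Hedgehog reporter output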 (primary screen)
# Cells: Drosophila clone 8 (Cl8) cells
# Knock-down reagent: long dsRNA against Drosophila genes
# Read-out: 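Plate reader light from a firefly reporter under a ptc promoter fragment that responds to Hedgehog, with Renilla light as transfection reference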
# Scale: firefly Hh reporter signal: higher = more ptc reporter light; Renilla reference signal: higher = more Renilla control light
# Rule for the call: 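Hit when the z-score averaged over two replicates is under -2 or over +3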
# Calls: active = hit: reporter lowered or raised; inactive = not a hit
# The deposit covers about 21,000 reagents; shown is a random part of those that have a named target and a result. Of all reagents, 503 (2.4%) were called active. 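Raw plate light values, not normalised; calls rest on replicate z-scores that were not deposited; hits include reporter decreases as well as increases.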 A plus sign joins genes that one reagent is predicted to hit. The record does not give: the amount of reagent, the time to read-out.
Target gene,DRSC id,"firefly Hh reporter signal, replicate 1","firefly Hh reporter signal, replicate 2","Renilla reference signal, replicate 1","Renilla reference signal, replicate 2",outcome
Nha2 + asRNA:CR43454,DRSC13594,53962,1.95e5,10167,3858,inactive
Mdh2,DRSC16361,5.90e5,73349,29872,1527,inactive
CR1075,DRSC12144,1.46e5,1.69e5,5604,5304,inactive
Edg84A,DRSC12594,63908,91799,2487,2722,inactive
CG10444,DRSC05990,75000,49072,3962,2593,inactive
CG11145,DRSC06049,1.13e5,87937,2129,7408,inactive
Nuf2,DRSC03123,35360,47041,1461,2162,inactive
Obp22a,DRSC00088,6.23e5,2.60e5,32880,10497,inactive
CG5704,DRSC08572,1.21e5,81072,5976,3680,inactive
Dsp1,DRSC20315,47914,11046,2924,458,inactive
CG30345,DRSC05144,97589,2.31e5,2344,9442,inactive
repo,DRSC16369,3.56e5,55186,18891,1413,inactive
d-cup,DRSC14846,91500,1.01e5,3884,2120,inactive
CG13252,DRSC11700,91644,95144,3305,2777,inactive
Dnaaf4,DRSC02405,1.03e5,77835,3274,6828,inactive
Snx16,DRSC06984,91594,39740,2546,2752,inactive
ND-B14.5AL,DRSC11795,79437,94412,3076,1060,inactive
CG44098,DRSC12214,1.27e5,1.59e5,3344,3890,inactive
CG44098,DRSC12240,63400,75542,2875,3059,inactive
CG44098,DRSC12327,98045,1.37e5,2955,3643,inactive
CG13053,DRSC09934,1.11e5,,3814,3539,inactive
mute,DRSC06562,66352,39079,1619,2701,inactive
Rilpl,DRSC18494,1.16e5,1.16e5,2608,3958,inactive
CG32700,DRSC17857,87564,2.77e5,2724,10492,inactive
CG32700,DRSC17858,68688,1.86e5,2434,7320,inactive
Chd64,DRSC08649,1.16e5,66739,4949,2699,inactive
bumpel,DRSC16100,90614,1.10e5,3564,3152,inactive
CG9550,DRSC03262,1.22e5,74944,2794,6585,inactive
CG30110,DRSC05686,99068,2.17e5,2587,9099,inactive
CG17129,DRSC08508,1.05e5,51079,4432,1196,inactive
AsnRS-m,DRSC07010,79952,53993,2387,3860,inactive
CG13088,DRSC02192,1.10e5,62400,2992,6144,inactive
Smyd3,DRSC17744,64266,1.85e5,1227,7667,inactive
CG10185,DRSC14205,96945,95509,2448,7209,inactive
PrBP,DRSC03189,81781,39368,2410,4840,inactive
CG7084,DRSC16194,1.55e5,96436,6400,4240,inactive
CG13321,DRSC06358,1.07e5,63485,2880,4412,inactive
LSm1,DRSC04458,87355,85281,2023,7700,inactive
CG30398,DRSC03891,1.65e5,2.20e5,3992,9371,inactive

Single entries from above:
Result for CG30345 [DRSC05144] under “firefly Hh reporter signal, replicate 2”: 2.31e5
Dnaaf4 [DRSC02405], firefly Hh reporter signal, replicate 2 → 77835
Value of Smyd3 [DRSC17744] under “firefly Hh reporter signal, replicate 1”: 64266
Entry for ND-B14.5AL [DRSC11795] under “firefly Hh reporter signal, replicate 2”: 94412
CG44098 [DRSC12240], firefly Hh reporter signal, replicate 1 → 63400
Entry for CG7084 [DRSC16194] in “firefly Hh reporter signal, replicate 2”: 96436
